Results are given in words; binding and its absence hold for the method and conditions named. Binding seen in cells or lysates may run through a third protein. Some binding calls cover weakened binding; strength is not graded here.
Target: FLAG-tagged MRPS27 (mouse) (UniProt Q8BK72)
Experiment: co-IP; anti-FLAG M2 magnetic beads on lysates of co-transfected NIH-3T3 cells crosslinked with 2 mM dithiobis[succinimidyl propionate]; lysis in 10 mM Tris-HCl pH 7.5, 260 mM sucrose, 100 mM KCl, 20 mM MgCl2, 1% digitonin; elution with 3x FLAG peptide; blot with anti-GFP and anti-FLAG

Sequences of proteins named here, by UniProt entry; tags and fusion partners are left off. Residues count along the entry.
UniProt Q8BK72, residues 18-415: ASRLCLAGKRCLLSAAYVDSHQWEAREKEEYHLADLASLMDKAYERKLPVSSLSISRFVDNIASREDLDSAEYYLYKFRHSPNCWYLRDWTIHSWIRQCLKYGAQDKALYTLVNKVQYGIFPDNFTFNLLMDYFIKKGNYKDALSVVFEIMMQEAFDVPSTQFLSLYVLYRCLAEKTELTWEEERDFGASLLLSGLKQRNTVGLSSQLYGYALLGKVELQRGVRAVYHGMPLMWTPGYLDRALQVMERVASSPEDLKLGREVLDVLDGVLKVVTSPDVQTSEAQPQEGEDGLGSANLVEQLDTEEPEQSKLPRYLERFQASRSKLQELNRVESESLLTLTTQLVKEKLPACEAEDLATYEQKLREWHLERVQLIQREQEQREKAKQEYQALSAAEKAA

- binding: binds
Substance: GFP-tagged MRPL44 (from UniProt Q9CY73 31-333)
